Data: publication PMC5561029
For at least one entry, the source does not settle the construct or the ends of the probe. Where cells or extracts were used, other partners may take part. For some of these results: Negatives hold for the conditions tested. For some of these results: At least one verdict was read from the data and is not stated in words by the source.

Sequences of proteins named here, by UniProt entry; tags and fusion partners are left off. A change or cut given only in a name is not applied to a line headed by its entry.
UniProt P42224: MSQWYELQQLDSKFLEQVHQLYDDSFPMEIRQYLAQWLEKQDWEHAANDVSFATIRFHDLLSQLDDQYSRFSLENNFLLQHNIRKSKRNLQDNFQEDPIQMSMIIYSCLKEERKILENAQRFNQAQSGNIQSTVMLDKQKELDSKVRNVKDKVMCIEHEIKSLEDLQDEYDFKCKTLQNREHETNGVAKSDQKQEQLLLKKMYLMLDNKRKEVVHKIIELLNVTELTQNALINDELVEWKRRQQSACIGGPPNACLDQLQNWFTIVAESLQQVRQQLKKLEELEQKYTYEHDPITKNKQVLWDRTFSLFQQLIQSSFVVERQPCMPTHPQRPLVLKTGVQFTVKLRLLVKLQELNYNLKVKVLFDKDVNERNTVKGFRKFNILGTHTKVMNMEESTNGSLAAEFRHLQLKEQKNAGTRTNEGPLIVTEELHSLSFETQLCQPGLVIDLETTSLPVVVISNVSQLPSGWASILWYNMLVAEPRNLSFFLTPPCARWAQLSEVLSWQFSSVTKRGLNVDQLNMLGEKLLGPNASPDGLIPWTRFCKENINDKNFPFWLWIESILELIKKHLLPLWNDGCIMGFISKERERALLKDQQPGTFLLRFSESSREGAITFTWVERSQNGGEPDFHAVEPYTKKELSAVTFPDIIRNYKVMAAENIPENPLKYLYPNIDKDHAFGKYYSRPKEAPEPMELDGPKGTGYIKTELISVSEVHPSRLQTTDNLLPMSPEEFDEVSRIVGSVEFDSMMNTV
UniProt P40763, whole entry: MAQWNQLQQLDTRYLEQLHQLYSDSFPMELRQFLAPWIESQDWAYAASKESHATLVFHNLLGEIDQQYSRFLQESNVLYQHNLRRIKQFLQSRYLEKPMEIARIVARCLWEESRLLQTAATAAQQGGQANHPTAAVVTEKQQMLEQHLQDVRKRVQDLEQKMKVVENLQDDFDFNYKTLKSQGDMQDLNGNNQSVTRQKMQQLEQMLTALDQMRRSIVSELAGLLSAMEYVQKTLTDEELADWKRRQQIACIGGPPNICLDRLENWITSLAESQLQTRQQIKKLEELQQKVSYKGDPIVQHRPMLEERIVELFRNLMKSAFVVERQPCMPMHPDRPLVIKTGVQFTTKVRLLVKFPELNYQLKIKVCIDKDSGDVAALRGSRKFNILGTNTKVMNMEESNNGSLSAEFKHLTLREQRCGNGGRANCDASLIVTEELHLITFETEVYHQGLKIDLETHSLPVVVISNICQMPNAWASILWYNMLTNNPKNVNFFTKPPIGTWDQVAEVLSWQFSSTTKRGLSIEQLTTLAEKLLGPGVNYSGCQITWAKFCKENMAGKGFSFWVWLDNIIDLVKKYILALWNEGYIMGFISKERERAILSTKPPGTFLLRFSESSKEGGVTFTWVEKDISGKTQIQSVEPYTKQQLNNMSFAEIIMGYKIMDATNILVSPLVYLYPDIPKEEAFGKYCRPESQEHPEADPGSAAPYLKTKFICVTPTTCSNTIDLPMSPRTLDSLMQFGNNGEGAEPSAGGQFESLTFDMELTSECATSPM

Assays:
[1] = target: STAT-1 (Homo sapiens (SW480/HepG2 nuclear extract)) (UniProt P42224); assay: EMSA supershift; conditions: HDLC, blocked by anti-STAT-1, IFN-gamma reduces; 5 ug nuclear extract, 20 mM HEPES pH 7.8, 1 mM MgCl2, 0.5 mM DTT, 40-80 mM KCl, 5% glycerol, 20 min, RT; protein in an extract; label: 32P (dCTP fill-in)
[2] = test system: STAT-1 + c-Jun; assay: EMSA supershift; conditions: HDLC, 5 ug nuclear extract, 20 mM HEPES pH 7.8, 1 mM MgCl2, 0.5 mM DTT, 40-80 mM KCl, 5% glycerol, 20 min, RT, protein in an extract, label: 32P (dCTP fill-in)
[3] = target: STAT-3 (Homo sapiens (SW480/HepG2 nuclear extract)) (UniProt P40763); assay: EMSA; conditions: IL-6 treated extract, STAT-3 homodimer; 5 ug nuclear extract, 20 mM HEPES pH 7.8, 1 mM MgCl2, 0.5 mM DTT, 40-80 mM KCl, 5% glycerol, 20 min, RT; protein in an extract; label: 32P (dCTP fill-in)
[4] = test system: STAT-1 + STAT-3; assay: EMSA; conditions: IL-6 treated extract, STAT-1/STAT-3 heterodimer; 5 ug nuclear extract, 20 mM HEPES pH 7.8, 1 mM MgCl2, 0.5 mM DTT, 40-80 mM KCl, 5% glycerol, 20 min, RT; protein in an extract; label: 32P (dCTP fill-in)
[5] = target: STAT-1 (Homo sapiens (SW480/HepG2 nuclear extract)) (UniProt P42224); assay: EMSA; conditions: 5 ug nuclear extract, 20 mM HEPES pH 7.8, 1 mM MgCl2, 0.5 mM DTT, 40-80 mM KCl, 5% glycerol, 20 min, RT, protein in an extract, label: 32P (dCTP fill-in)
[6] = test system: STAT-1 + Fos family (pan-Fos antibody); assay: EMSA supershift; conditions: HDLC, blocked by anti-STAT-1, supershifted by anti-pan-Fos, PMA enhances, IFN-gamma reduces; 5 ug nuclear extract, 20 mM HEPES pH 7.8, 1 mM MgCl2, 0.5 mM DTT, 40-80 mM KCl, 5% glycerol, 20 min, RT; protein in an extract; label: 32P (dCTP fill-in)
[7] = HDLC, HepG2 extract, with 1 ug poly dI:dC (no AP-1 site)

## CCGGTACCAAGACAGGAAGCACTTCCTGGAGATTAATC / CAGTGATTAATCTCCAGGAAGTGCTTCCTGTCTTGGTA [MMP-3 SBE IV]
[1]
  binding result: binds

## GATCATCCTACTTTGAATTTGGAATGTTTGGAAATGGTC / AGCTGACCATTTCCAAACATTCCAAATTCAAAGTAGGAT [MMP-3 SBE II/III]
[2]; anti-c-Jun reduces binding, IL-6 increases
  binding result: binds

## GATGAGTCAGACAGCCTCTGGCTTTCTGGAAGGG / GATCCCCTTCCAGAAAGCCAGAGGCTGTCTGACTCATCGTAC [MMP-1 SBE/AP-1]
[2]; constitutive and with IL-6, anti-c-Jun reduces binding
  binding result: binds

## TCGACGTCATTTCCCGTAAATCCCG / TCGACGGGATTTACGGGAAATGACG [SIE (c-fos, m67)]
[3]
  binding result: binds
[4]
  binding result: binds
[5]; IFN-gamma or IL-6 treated extract, STAT-1 homodimer
  binding result: binds

## TCGACTGCCATTTGGATGAAAGCAAG / TCGACTTGCTTTCATCCAAATGGCAG [MMP-3 SBE I]
[5]; HDLC, HepG2 extract, SBE I without AP-1
  binding result: binds
[5]; [7]
  binding result: no binding

## TCGACTGCCATTTGGATGAAAGCAAGGATGAGTCAAGC / TCGAGCTTGACTCATCCTTGCTTTCATCCAAATGGCAG [MMP-3 SBE I/AP-1]
[6]
  binding result: binds

## TCGAGACACCTCTGGCTTTCTGGAAGGG / TCGACCCTTCCAGAAAGCCAGAGGTGTC [MMP-1 SBE]
[5]; [7]
  binding result: no binding
